Results as given in PubChem BioAssay AID1347426 (Functional Genomics Laboratory (NCATS/FGL), 2020).
The campaign covered roughly 31,000 sequences. About 1,400 (4.5%) were called active.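 The calls were made as follows: active = median seed-adjusted z-score above 1 or below -1; inactive = the rest.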 Some of the results follow.

test: Novel Modifiers of Survival Motor Neuron (SMN) Protein: Gene Identification via Genome-wide siRNA Screen; conditions: HEK293T SMN2-luciferase reporter, siRNA knockdown, 72 h; actives lie on both sides;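 also: luminescence tracks full-length SMN protein made from the SMN2 reporter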
In short: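 Each of three siRNAs per gene is reverse-transfected (1 pmol) into reporter HEK293T cells whose luciferase output tracks SMN protein level. After 72 h culture, ONE-Glo luminescence is control-normalized, log10-transformed and MAD-standardized; Common Seed Analysis deprioritizes seed-driven hits.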

Sequence | median seed-adjusted z-score
CCCUGAUGGUGCUAACUGATT against ATF6 | inactive: 0.26
GUCCAACUAUGUGCUCAAATT against PGLYRP1 | inactive: -0.559
CAACGACUGCCUUCCCGAUTT against JAG2 | inactive: -0.234
CCAUCGUACCUGUUACCAATT against KRIT1 | inactive: -0.447
ACAUGUUUUUAGAAUUGCUTT against TST | inactive: 0
AGAGAAACCAAGUAUUUGATT against GSTM2 | inactive: -0.464
UGCGAGUAGUGACCACGAATT against TCEB3C | inactive: 0.382
GAGCGAGUUUUACCUGAUATT against ABCA10 | inactive: -0.104
GCCUAAAUCCCAAAUCGAATT against CXCL11 | inactive: -0.135
GGACUUAGGAGGGCAGGAATT against ARFRP1 | inactive: -0.329
CCACCUAAGCAAUAUAGCATT against VPS54 | inactive: -0.128
GGAUCUGAACUCUGAUAUATT against LDHAL6B | inactive: -0.192
CAGUCGAACAGGAUGAUGATT against ATG16L1 | inactive: -0.187
GCCCAAUACUUGCAAGUGATT against KCNA2 | active: -1.03
CCCUCUAUGAUGCAACCUATT against CFL1 | inactive: 0.685
CUAUAGCAGGGAUUCGUCATT against TDRD5 | inactive: -0.0961
GAAUUUUGUGGUUACACUATT against POLR1D | inactive: -0.0409
GUCCAAGAGUUGUUUAGAATT against RPUSD4 | inactive: -0.0264
GUAUGAAGAUGAAUAAGGATT against ROCK1 | inactive: -0.306
GACCCAUUGCUGUCCAACATT against EMID1 | inactive: 0.979
CGGUGUACCGCAUCUUUAATT against 4-Mar | inactive: 0.168
GCGUGGCUCUGUUACUACATT against PPY | inactive: -0.0804
CCUAUUAAGUGUAAUCUCATT against UBE2R2 | inactive: 0
GUGCUAAAUUUAGCUCAAATT against IL2 | inactive: 0.0694
GUUGAAAGGUGAUGACCUUTT against HNRNPCL1 | inactive: 0
GCAAGAUAGCUCAACCCAATT against ADAMTS12 | inactive: -0.0721
ACUGGACUCCGUUUCUUAATT against GPLD1 | inactive: 0.0152

Pulled one by one from the entries so far (two):
Sequence | median seed-adjusted z-score
CCUAUUAAGUGUAAUCUCATT against UBE2R2 | inactive: 0
GAAUUUUGUGGUUACACUATT against POLR1D | inactive: -0.0409

Continuation.

Sequence | median seed-adjusted z-score
GAAUAAACAUUCAUAGUGATT against SRD5A2 | inactive: 0.185
CCAAUAACGCAGAUAGGUUTT against CATSPER1 | inactive: 0.655
ACAUCAAGUGGAUGACUCATT against AKAP14 | inactive: 0.136
GCUCUAAGUUUUACGGAAATT against CFI | inactive: -0.596
CUACUUCAUUGCUAAAAAUTT against GRPR | inactive: 0.121
CUAUAAAUGUCAACAAUGUTT against ZNF75D | inactive: 0
GAUGAUACCAGGCAUAUAATT against USP15 | inactive: -0.405
GGAGGAGACUGUCCGUAUUTT against LPP | inactive: -0.103
AAAUCGCGACGACUAAAUATT against CCBE1 | inactive: 0.964
CUAUUCUAGUGAUAGGAUUTT against SORBS2 | inactive: 0.0391
GCUAACGACAAAUACGAGATT against TCF21 | inactive: -0.15
GGGAGAUGCAGCUCUCAGATT against VENTX | inactive: 0.669
CUGCCGACAUGAUCAAGGATT against CYB5R2 | inactive: -0.403
AAAUACGGGUGGAGAUCAATT against WIZ | inactive: 0.282
AGCUUAUGCAUUUGGCAAATT against APBA3 | inactive: -0.119
GCAGAGUCGAGUGAAGACATT against FDXR | inactive: 0.6
UGCUUUAUAUGCUCAAGAATT against PNPLA6 | inactive: 0.309
GAUUUAAACGAGAUUUACATT against SP140 | inactive: 0.186
AGUGCAGUUUCAAUCAGAATT against FXYD6 | inactive: -0.214
GCACUGAUGGGCUCACAUATT against SPINK4 | inactive: -0.0134
GACCGUUGCUGUACUUACATT against EPM2A | inactive: 0.319
AGGUGACUGACAUCAGUGATT against ERF | inactive: -0.0288
GGAGUUCGUUCAGAGACCATT against MOCS2 | inactive: 0.0327
GGACGGAAGCGAAAAUCGATT against KAT5 | inactive: 0.32
AGUCUUCGCAGAUUAUGAATT against PYGM | inactive: -0.0689
CUAAGAGGAUUGAGGUAGATT against ZNF747 | inactive: 0.379
GAAUAACCCAGACUAGGAATT against GPR125 | inactive: 0.516
